Laboratory results taken from PMC8602290.
These are yes or no findings as the source states them, for the method shown. In cells and extracts the contact can be indirect. These calls come from enrichment with a bait or labelling near it, and not all partners need be listed. For some assays here: No binding means not detected with the bait.

By UniProt entry, the sequences of proteins in these tests, tags left out. Where a name states a change or a piece, a line headed by the entry shows the natural chain unless it says otherwise. Chains listed by the source or under a name are the forms on record and can include a tag or linker. Residues count along the entry.
N-terminal substrate-binding MATH domain of SPOP (SPOP^MATH), bait of the tandem affinity purification (O43791, residues 31-161): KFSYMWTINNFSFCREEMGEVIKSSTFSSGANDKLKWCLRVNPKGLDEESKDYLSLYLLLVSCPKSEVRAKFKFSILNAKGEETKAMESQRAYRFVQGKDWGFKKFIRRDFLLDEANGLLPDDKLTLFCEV
PCa-associated mutant SPOP^MATH(F102C), control bait of the tandem affinity purification (O43791, form named): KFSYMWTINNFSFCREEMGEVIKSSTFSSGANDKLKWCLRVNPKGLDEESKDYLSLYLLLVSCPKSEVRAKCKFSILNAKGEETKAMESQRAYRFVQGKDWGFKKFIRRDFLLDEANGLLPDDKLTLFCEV
UniProt Q13283: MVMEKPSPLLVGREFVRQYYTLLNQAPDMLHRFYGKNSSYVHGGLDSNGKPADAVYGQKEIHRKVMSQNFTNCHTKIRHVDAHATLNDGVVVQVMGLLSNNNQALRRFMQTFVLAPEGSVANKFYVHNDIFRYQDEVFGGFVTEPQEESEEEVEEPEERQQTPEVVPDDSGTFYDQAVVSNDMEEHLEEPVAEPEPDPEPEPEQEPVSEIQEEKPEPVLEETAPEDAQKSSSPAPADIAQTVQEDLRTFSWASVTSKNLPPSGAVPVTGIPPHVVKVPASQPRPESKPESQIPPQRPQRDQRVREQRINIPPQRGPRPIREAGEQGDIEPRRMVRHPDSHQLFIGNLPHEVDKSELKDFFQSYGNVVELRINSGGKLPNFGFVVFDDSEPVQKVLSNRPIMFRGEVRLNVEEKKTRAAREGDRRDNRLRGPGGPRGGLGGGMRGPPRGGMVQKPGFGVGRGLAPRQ

How the values were obtained:
[1] = biological target: N-terminal substrate-binding MATH domain of SPOP (SPOP^MATH), bait of the tandem affinity purification (UniProt O43791); assay: affinity purification with mass spectrometry; tandem affinity purification (TAP-MS) of SPOP^MATH or SPOP^MATH(F102C) from 22Rv1 cells
[2] = biological target: PCa-associated mutant SPOP^MATH(F102C), control bait of the tandem affinity purification (UniProt O43791); assay: as above

“GTPase Activating Protein (SH3 Domain) Binding Protein 1 (G3BP1), endogenous in 22Rv1 cells (from UniProt Q13283 1-466)” was tested, and the binding [1] was “binds” and the binding [2] was “no binding”.
